These are yes or no findings as the source states them, for the method shown. Binding seen in cells or lysates may run through a third protein. Some binding calls cover weakened binding; strength is not graded here.

The chains behind the UniProt entries cited, without tags or fusion partners. Where a name states a change or a piece, a line headed by the entry shows the natural chain unless it says otherwise.
UniProt Q9Z1G4: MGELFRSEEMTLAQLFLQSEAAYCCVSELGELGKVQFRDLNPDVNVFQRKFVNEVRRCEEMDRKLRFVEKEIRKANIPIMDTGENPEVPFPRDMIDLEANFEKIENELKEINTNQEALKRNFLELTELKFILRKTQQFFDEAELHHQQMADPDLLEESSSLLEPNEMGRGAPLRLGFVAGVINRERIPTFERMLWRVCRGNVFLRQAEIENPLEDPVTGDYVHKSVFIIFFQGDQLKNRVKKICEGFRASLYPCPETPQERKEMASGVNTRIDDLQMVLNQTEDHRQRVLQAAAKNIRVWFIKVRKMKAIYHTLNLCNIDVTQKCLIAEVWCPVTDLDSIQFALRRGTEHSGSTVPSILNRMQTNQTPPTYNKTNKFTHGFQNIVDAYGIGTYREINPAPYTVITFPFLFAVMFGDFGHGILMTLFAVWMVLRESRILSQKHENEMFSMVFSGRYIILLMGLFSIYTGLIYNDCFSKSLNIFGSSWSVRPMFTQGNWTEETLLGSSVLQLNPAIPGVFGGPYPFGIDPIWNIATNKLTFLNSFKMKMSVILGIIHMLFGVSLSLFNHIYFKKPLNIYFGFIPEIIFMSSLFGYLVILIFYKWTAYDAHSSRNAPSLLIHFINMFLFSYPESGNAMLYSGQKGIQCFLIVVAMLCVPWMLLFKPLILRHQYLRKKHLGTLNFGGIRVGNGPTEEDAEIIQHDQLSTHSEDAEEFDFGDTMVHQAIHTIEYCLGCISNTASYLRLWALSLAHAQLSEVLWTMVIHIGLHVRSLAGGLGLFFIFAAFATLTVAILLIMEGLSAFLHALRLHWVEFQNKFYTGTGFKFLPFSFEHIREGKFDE
UniProt Q93050: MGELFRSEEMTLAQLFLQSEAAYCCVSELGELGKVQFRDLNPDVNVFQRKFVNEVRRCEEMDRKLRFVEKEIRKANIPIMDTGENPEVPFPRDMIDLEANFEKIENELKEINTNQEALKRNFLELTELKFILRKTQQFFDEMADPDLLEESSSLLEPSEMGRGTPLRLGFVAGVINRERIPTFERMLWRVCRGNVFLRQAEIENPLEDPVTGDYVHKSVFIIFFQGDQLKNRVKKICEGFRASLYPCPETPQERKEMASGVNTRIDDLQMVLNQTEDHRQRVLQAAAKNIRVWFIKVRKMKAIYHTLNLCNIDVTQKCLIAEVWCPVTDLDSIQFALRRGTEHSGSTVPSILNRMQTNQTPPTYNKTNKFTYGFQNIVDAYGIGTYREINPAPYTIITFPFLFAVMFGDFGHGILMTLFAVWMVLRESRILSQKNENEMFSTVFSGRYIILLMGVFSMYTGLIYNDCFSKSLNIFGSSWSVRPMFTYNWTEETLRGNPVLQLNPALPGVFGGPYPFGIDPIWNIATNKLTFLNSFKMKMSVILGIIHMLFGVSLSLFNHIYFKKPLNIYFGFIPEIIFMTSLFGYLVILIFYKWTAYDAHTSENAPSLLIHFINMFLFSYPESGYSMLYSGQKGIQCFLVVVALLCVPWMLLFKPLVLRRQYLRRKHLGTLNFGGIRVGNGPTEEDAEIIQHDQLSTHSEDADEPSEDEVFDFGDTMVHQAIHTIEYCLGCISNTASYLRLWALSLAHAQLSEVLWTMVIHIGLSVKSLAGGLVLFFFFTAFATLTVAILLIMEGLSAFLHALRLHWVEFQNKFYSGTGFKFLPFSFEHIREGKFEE

Assay [1] concerns the target T1, palmitoyl-protein thioesterase-1 (Ppt1) (mouse (endogenous in neurons)) (UniProt O88531).
T1 sequence: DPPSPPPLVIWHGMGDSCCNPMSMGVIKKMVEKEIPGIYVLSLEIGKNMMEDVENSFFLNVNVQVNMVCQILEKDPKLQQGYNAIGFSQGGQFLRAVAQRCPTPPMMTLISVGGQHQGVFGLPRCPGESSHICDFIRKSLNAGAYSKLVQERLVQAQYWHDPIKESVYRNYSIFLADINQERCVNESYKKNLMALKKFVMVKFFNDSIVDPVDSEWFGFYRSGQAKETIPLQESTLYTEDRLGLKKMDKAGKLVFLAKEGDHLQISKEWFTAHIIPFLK
Briefly: proximity ligation; Duolink PLA on fixed, permeabilised cultured primary neurons of WT and Cln1-/- mice with V0a1 antibody and AP-2, AP-3 or Ppt1 antibody; signal when antibodies are <40 nm apart.

Assay [2] addresses T2, palmitoyl-protein thioesterase-1 (PPT1) (human (endogenous in HEK-293)) (UniProt P50897).
T2 sequence: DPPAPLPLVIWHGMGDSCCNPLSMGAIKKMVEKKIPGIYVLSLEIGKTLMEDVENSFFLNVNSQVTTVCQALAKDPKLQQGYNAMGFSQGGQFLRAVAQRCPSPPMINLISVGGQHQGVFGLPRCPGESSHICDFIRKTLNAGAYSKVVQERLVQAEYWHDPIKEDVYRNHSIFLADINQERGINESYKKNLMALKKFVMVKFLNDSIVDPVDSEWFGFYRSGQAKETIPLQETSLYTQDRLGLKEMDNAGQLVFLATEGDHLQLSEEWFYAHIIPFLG
The assay is described as follows: co-IP; HEK-293 cells transfected with tagged V0a1 constructs, lysed in RIPA buffer, diluted in PBS with 0.5% NP-40; AP-2, AP-3 or PPT1 antibody overnight at 4 °C, TrueBlot IP beads, western blot; called pull-down by the paper.

Regarding “v-ATPase subunit a1 of the V0 sector (V0a1) (from UniProt Q9Z1G4 1-839)”, in assay [1], the binding result is listed as “binds”. For the substance “FLAG-tagged V0a1 C58A mutant (from UniProt Q93050 1-837)”, in assay [2], the binding result is “binds”.

Turning to “FLAG-tagged WT-V0a1 (from UniProt Q93050 1-837)”, the binding result in assay [2] is “binds”. Still for that read-out and setting: as for “FLAG-tagged V0a1 C25S mutant (from UniProt Q93050 1-837)”, the entry is “no binding”.

For the origin of these results see PMC5344305.
